System: EB–DNA
Test: EB–DNA competitive fluorescence emission titration
Assay type: binding
Details: for n, number of binding sites (SV method II), DNA: EB–DNA; for P, ratio of fluorescence quantum efficiency, DNA: intercept of F/F0 vs 1/[DNA]
Protocol: Titrations were performed for all tested compounds (1–200 μM) with pre-incubated EB-bound DNA and the intensity variations between 510 nm and 610 nm were carefully monitored in the presence and absence of DNA (200 μM) during the initial emission and excitation by EB.[31]
Fluorescence emission spectral titration is an efficient approach to evaluating the binding properties of DNA/BSA biomolecules. In general, the fluorescence of EB is quite weak in aqueous solution, but when it is bound to DNA, the fluorescence intensity rises. However, it is a well-known imperative intercalator and is more supportive in distinguishing the binding strength of non-fluorescence test substances. Also, the fluorescence emission spectra of the EB–DNA adduct were examined at 610 nm in the absence and presence of rising quantities of each test compound. When the complex concentration (0–240 μM) rises, the fluorescence intensity of the EB-bound DNA complex diminishes owing to the displacement of EB from CT-DNA. A notable reduction in the fluorescence emission intensity at 610 nm is observed (Fig. S26 ^† and Table 4). The photoelectron shift from DNA's guanine base to the excited states may be the cause of the frequency quenching in the emission of the test substance by DNA. […] Therefore, the competitive binding experiment can make use of EB as a fluorescent probe. […] This is further evidence that complexes (1–3) strongly bind intercalatively with DNA. The observed results agree well with the data from electronic absorption spectral measurements. Additionally, the experiment was extended to examine the binding properties between the test substance and BSA. BSA mostly contains three amino acid residues (tyrosine, tryptophan, and phenylalanine), which give it its inherent fluorescence. […] These two residues also have minimal quenching effects. Tryptophan in BSA fluoresces mostly because of a residue that is trapped inside a hydrophobic cavity. Therefore, it is crucial to model potential binding interactions with the metal complexes. […] The fluorescence intensity also reduces while the test substances (1–3) are steadily blended with the BSA solution, proving that complexes (1–3) interact with BSA via altering the protein's secondary structure, which also leads to an alteration in the tryptophan environment of BSA (Fig. S27 ^†). Furthermore, BSA structural similarities share 76% sequence identity with human serum albumin (HSA), the most prevalent protein in blood plasma that transports ions and proteins to cells and tissues. HSA is able to readily crystallize under the trivalent cations, but BSA has no ready crystallizing property. However, they consist of parallel physicochemical properties to each other.[74,75] Additionally, the Stern–Volmer eqn (12) and (13) were employed to analyze the data (Fig. S28 ^† and Table 4). Additionally, the kq values for DNA and BSA binding were acquired in the range of 1.1636–2.8863 × 10^12 and 2.6390–7.0774 × 10^12 mol^−1 s^−1, respectively. They are also much greater than the collision quenching constant value (2.0 × 10^10 mol^−1 s^−1). Therefore, it is assumed that the static quenching process was brought on by adduct construction between the test compounds and BSA rather than a dynamic collision. However, fluorescence spectroscopy is generally plagued by the inner filter effect (IFE), disturbing spectral analysis. The energizing ray is attenuated due to the highly concentrated solution sample. As a result, strong fluorescence is only seen on surfaces facing the excitation beam.

| Compound | Scatchard analysis n | n, number of binding sites (SV method II), DNA | P, ratio of fluorescence quantum efficiency, DNA |
| --- | --- | --- | --- |
| [Mn+2].[O-]c1ccccc1N=Cc1ccc(N2CCOCC2)cc1.[O-]c1ccccc1N=Cc1ccc(N2CCOCC2)cc1.c1ccc(-c2ccccn2)nc1 [(1)] | 0.983 | 1.037 | 0.0902 |
| [Co+2].[O-]c1ccccc1N=Cc1ccc(N2CCOCC2)cc1.[O-]c1ccccc1N=Cc1ccc(N2CCOCC2)cc1.c1ccc(-c2ccccn2)nc1 [(2)] | 1.056 | 1.104 | 0.1516 |
| [Ni+2].[O-]c1ccccc1N=Cc1ccc(N2CCOCC2)cc1.[O-]c1ccccc1N=Cc1ccc(N2CCOCC2)cc1.c1ccc(-c2ccccn2)nc1 [(3)] | 0.971 | 1.024 | 0.0950 |
| Oc1ccccc1N=Cc1ccc(N2CCOCC2)cc1 [(HL), 2-(4-morpholinobenzylideneamino)phenol] | 1.158 | 0.973 | 0.0899 |
